For at least one entry, the source does not settle the construct or the ends of the probe. A weaker result is weaker than the reference pair of the same experiment.

The chains behind the UniProt entries cited, without tags or fusion partners.
UniProt Q8N884, whole entry: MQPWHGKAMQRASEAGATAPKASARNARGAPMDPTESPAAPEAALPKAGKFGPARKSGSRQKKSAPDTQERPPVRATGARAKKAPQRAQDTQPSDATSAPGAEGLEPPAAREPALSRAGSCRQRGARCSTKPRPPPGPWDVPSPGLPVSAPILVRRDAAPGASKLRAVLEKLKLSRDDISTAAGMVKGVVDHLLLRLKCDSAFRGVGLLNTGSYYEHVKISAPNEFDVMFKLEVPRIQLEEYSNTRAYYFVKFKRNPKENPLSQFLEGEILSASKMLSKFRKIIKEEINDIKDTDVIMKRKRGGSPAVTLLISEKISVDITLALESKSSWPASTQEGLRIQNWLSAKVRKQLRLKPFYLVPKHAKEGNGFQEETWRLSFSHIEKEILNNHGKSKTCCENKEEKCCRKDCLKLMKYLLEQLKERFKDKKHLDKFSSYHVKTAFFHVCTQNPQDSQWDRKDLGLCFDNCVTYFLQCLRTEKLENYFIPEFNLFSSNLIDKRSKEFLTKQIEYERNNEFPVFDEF

The record followed here is paper PMC8934670.

The data set has as its target cGAS (human) (UniProt Q8N884). In words: EMSA. To be noted: 5-10 uM cGAS, 25-50 fmol DNA, 1 mM MgCl2, text: substantially reduced, legend: not bound; 10 mM HEPES-NaOH pH 7.5, 100 mM NaCl, 1 mM DTT, 1 mM MgCl2, 20 ug/ml BSA, 25 C, 30 min; native PAGE (6% in Methods, 5% in legends), 0.5x TBE; recombinant protein; protein details: His (pET28a); label: 32P. Background: Mobility shift assays separate free from complexed probe on a gel.

On to “TGTACATGATCTACACCAAAGAGCAGTGTAGATCATGTACAGATCAGTCATAGATCACTAGTAGATCTGTA [3'-resected substrate]”, for which the binding result was “binds more weakly”.

For the sequence “TACAGATCTACTAGTGATCTATGACTGATCTGTACATGATCTACACCAAAGAGCAGTGTAGATCATGTACA [5'-resected substrate]”, the binding result is on record as “binds more weakly”.
